Experimental data as given in PubChem BioAssay AID1259354 (Paczesny and Yang Labs, IUPUI and University of Michigan, 2018).
The whole screen tested about 78,000 compounds, of which about 1,800 (2.3%) were called active. The inconclusive results got no clear call from the source; some entries with a clear call stand among them for comparison. No stated cut-off is given here; in the data, active means inhibition above about 30%; inconclusive means mostly about 10% to 28%; inactive means weaker than that.

Sequences of proteins named here, by UniProt entry; tags and fusion partners are left off. A change or cut given only in a name is not applied to a line headed by its entry.
UniProt Q01638: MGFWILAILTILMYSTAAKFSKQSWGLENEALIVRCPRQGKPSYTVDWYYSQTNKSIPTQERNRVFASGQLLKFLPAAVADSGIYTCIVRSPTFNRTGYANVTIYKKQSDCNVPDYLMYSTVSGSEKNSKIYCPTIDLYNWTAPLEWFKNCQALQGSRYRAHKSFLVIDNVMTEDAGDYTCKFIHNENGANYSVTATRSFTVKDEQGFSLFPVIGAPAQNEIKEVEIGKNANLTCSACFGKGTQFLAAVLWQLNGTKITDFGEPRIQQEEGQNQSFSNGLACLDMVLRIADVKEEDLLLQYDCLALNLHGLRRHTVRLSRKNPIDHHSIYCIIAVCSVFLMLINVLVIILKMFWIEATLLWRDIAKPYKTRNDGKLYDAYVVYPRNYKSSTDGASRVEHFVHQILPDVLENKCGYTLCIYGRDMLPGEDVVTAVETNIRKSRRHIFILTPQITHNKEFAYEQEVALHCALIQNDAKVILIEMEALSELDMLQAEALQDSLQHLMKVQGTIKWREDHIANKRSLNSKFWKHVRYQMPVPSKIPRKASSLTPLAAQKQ

Biological target: Interleukin-1 receptor-like 1 (Homo sapiens) (UniProt Q01638)
Assay: blocks human ST2 binding to IL-33, primary screen, biochemical, AlphaLISA (AID 1259354)
Conditions: AlphaLISA ST2-Fc/biotin-IL-33 interaction, 1 h; at 17 µM, active compounds read high

Compound | inhibition
COc1ccc(-n2nc(C(=O)NCc3ccccn3)c3c4ccccc4n(C)c3c2=O)cc1Cl | inconclusive: 16%
O=C(Nc1ccc2c(c1)OCO2)c1noc2c1CCc1ccccc1-2 | inactive
CCN(CC)Cc1cnc2c(C(=O)NC3CCCCC3)cnn2c1 | inconclusive: 11%
CN(C)c1ccc(NC(=O)c2c(F)c(F)c(F)c(F)c2F)cc1 | inconclusive: 11%
COc1cccc(-n2c(=O)c3sccc3n(CC(=O)c3ccccc3)c2=O)c1 | inconclusive: 13%
O=C(C[C@@H]1O[C@H](CNC(=O)C2CC2)[C@@H](O)[C@H]1O)Nc1ccccc1 | inconclusive: 11%
O=[N+]([O-])c1ccc(CSc2ncn[nH]2)cc1 | inactive
O=C(Nc1ncc(S(=O)(=O)c2ccc([N+](=O)[O-])cc2)s1)c1cccc(Cl)c1 | inactive
CC1(C)CC(=O)C2=C(C1)Nc1ccccc1N(C(=O)Cc1ccccc1)C2c1cccnc1 (stereo not given) | inconclusive: 29%
NS(=O)(=O)c1ccc(Nc2nc(-c3ccccn3)cs2)cc1 | inactive
CCOc1ccccc1N(CC(=O)O)S(C)(=O)=O | inactive
CC(=O)Nc1ccc(S(=O)(=O)NC2=NCN(C3CCCCC3)CN2)cc1 | inconclusive: 28%
CC1=C[C@@H](CNS(=O)(=O)c2cccs2)[C@H](C(C)C)C[C@H]1CC(=O)O | inactive
COc1cc(Br)c(/C=C2\SC(N)=NC2=O)cc1OC | inconclusive: 24%
O=C(Cc1c([N+](=O)[O-])cc([N+](=O)[O-])cc1S(=O)Cc1ccccc1)Nc1ccccc1 (stereo not given) | inconclusive: 16%
CS(=O)(=O)N1CCN(c2ccc([N+](=O)[O-])c(NCc3ccco3)c2)CC1 | inconclusive: 29%
Cc1c(C(=O)N2CCCCC2C)sc2ncnc(N3CCN(c4ccccn4)CC3)c12 (stereo not given) | inactive
O=[N+]([O-])c1ccccc1N1CCCCC1 | inconclusive: 11%
N/C(=N/OC(=O)c1ccc(Cl)cc1Cl)c1ccccn1 | inconclusive: 13%
COc1cc(C=Nc2c(-c3ccco3)nc3ccc(Cl)cn23)ccc1O | active: 43%
O=c1[nH]c2ccccc2nc1Cc1ccccc1Br | inconclusive: 11%
O=C(/C=C/c1cccs1)N1CC[C@@H](N2CCN(c3ccccc3F)CC2)[C@H](O)C1 | inactive
CCSc1nnc(NC(=O)Cc2ccc(Cl)cc2)s1 | inconclusive: 11%

Compound | inhibition
Cn1c(=O)c2c(nc3n2CC(=O)N3c2cccc(Cl)c2)n(C)c1=O | inactive
CC(C)Cn1cc(C(=O)N2CCCC2)c2c3ccccc3n(C)c2c1=O | inconclusive: 18%
COc1ccccc1C(=O)Nc1cc(Br)cc2cccnc12 | inconclusive: 19%
O=C(NCCCc1ccncc1)C1CC12CCN(C(=O)c1csc(-c3cccs3)n1)CC2 (stereo not given) | inconclusive: 14%
Cc1sc2ncnc(N3CC(C)OC(C)C3)c2c1C (stereo not given) | inconclusive: 12%
CCOc1ccc(-c2cn(-c3cccc(CC)c3)c(=O)[nH]2)cc1Cl | inconclusive: 15%
CN(Cc1ccccc1)Cc1cc(C[C@H]2CNCC[C@H]2CC(=O)N(C)Cc2ccccc2)no1 | inconclusive: 13%
CCn1cc(C(=O)N2CCOCC2)c2cc(OC)c(OC)cc2c1=O | inactive
Cc1cc(N2CCOCC2)nc2ccc(NC(=O)CCC(=O)NCCN(C)C)cc12 | inconclusive: 10%
CCOC(=O)c1ccc(NS(=O)(=O)c2ccc3c(c2)CCN3C(=O)C2CC2)cc1 | inactive
COC(=O)CCCNC(=O)c1ccc2nc(-c3cccc(OC)c3)oc2c1 | inconclusive: 14%
COc1ccc(C(=O)Nc2c3c(nn2-c2cccc(Cl)c2)CS(=O)C3)c(OC)c1 (stereo not given) | inactive
O=C(C(=O)N1CCC(c2[nH]ncc2-c2ccccc2)CC1)c1cccnc1 | inactive
NC[C@@H]1OC(O[C@H]2[C@@H](O)[C@H](O[C@@H]3[C@@H](O)[C@H](N)C[C@H](N)[C@H]3O[C@H]3O[C@H](CO)[C@@H](O)[C@H](O)[C@H]3N)O[C@@H]2CO)[C@H](N)[C@@H](O)[C@@H]1O (stereo not given in full) | inactive
Cc1cc(NC(=O)CSc2cn(Cc3cccc(F)c3)c3ccccc23)no1 | inconclusive: 16%
CC(=O)N[C@@H]1c2ccccc2C2(CCN(C(=O)c3n[nH]c4ccccc34)CC2)[C@H]1OCc1ccccc1 | inconclusive: 25%
CC(C)C[C@@H](N)C(=O)NCc1noc(C2CCCC2)n1 | inconclusive: 19%
COc1ccc(CNC(=O)CCC2N=C3c4ccccc4N=C(SCC(N)=O)N3C2=O)cc1 (stereo not given) | inconclusive: 14%
CN(CC1CCN(CCc2ccc(Cl)cc2)CC1)C(=O)C1CC=CCC1 (stereo not given) | inconclusive: 17%
Cc1cccc(C)c1NC(=O)COc1ccccc1OCC(C)C | inconclusive: 14%
O=C(Nc1ccc(Br)cc1)c1cc(C2CC2)on1 | inactive
Nc1ccccc1-c1nnc(SCc2ccccc2)[nH]c1=O | inconclusive: 20%
CC1(C)CC(=O)C2=C(C1)Nc1nc(SCc3ccccc3F)nn1C2c1ccncc1 (stereo not given) | inconclusive: 26%

Compound | inhibition
Cc1ncsc1C(=O)N1CC[C@@H](c2ccc3ccccc3c2)[C@H](O)C1 | inconclusive: 10%
O=C(NCc1ccc(Cl)cc1)c1cc(-c2ccc3c(c2)OCO3)on1 | inactive
CNC(=O)[C@@H]1C[C@H](N)CN1Cc1ccc(CC(C)C)cc1 | inactive
CCOc1cc(/C=C2\SC(=Nc3ccc(C(=O)O)cc3)N(C)C2=O)ccc1O | inconclusive: 14%
COc1ccc2c(c1)CCc1c(C(=O)Nc3ccc(OC)cc3OC)noc1-2 | inconclusive: 14%
O=C(c1ccc(O)c([C@@H]2O[C@H](CO)[C@@H](O)[C@H](O)[C@H]2O)c1O)[C@H](O)Cc1ccc(O)c(O)c1 | inconclusive: 11%
CC(NC(=O)CN(c1ccc(F)cc1)S(=O)(=O)c1ccccc1)c1ccccc1 (stereo not given) | inactive
CCN(CC)S(=O)(=O)c1cc(C(=O)Nc2ccccc2[N+](=O)[O-])ccc1Br | inconclusive: 25%
COCCNC(=O)[C@@H](C)[C@@H]1CC[C@@]2(C)CC[C@H](NC(=O)c3ccccn3)[C@@H](C)[C@@H]2[C@H]1O | inconclusive: 17%
Cc1c(CN2CCC(CCC(=O)NCc3ccc(F)cc3)CC2)[nH]c2ccccc12 | inactive
Cc1ccnn1CCC(=O)NC1CC(=O)N(CCc2ccc(F)cc2)C1 (stereo not given) | inconclusive: 10%
C=CCNC(=O)c1cc(-c2cc(OC)ccc2OC)on1 | inactive
COc1cccc(C2C3=C(CCCC3=O)Nc3nc(SCc4ccccc4)nn32)c1 (stereo not given) | inconclusive: 13%
O=C1NC(=Nc2ccccn2)SC1Cc1cccc(C(F)(F)F)c1 (stereo not given) | inconclusive: 16%
Clc1ccccc1OCCn1cc(C2CC=CCC2)nn1 (stereo not given) | inconclusive: 22%
CN1[C@@H](CCC(=O)NCc2ccccc2)CNC(=O)[C@@H]2[C@H]1CCN2Cc1csnn1 | inconclusive: 26%
O=C(CC1NC(=O)c2ccccc21)NCc1cccnc1-n1ccnc1 (stereo not given) | inconclusive: 16%
C=CCN(Cc1ccc(C)s1)C(=O)c1c(Cl)cnn1CC | inconclusive: 13%
CCOCCCNC(=O)c1cc2cc3ccc(OC)cc3nc2o1 | inconclusive: 19%
O=C(c1ccco1)N1CCN(Cc2cnn3cccnc23)CC1 | inactive
O=C(NCC1Cc2cccc(-c3ncccn3)c2O1)c1ccc(-n2cccn2)cc1 (stereo not given) | inconclusive: 10%
O=C1CCCC2=C1C(c1ccc(F)cc1)Nc1ccc3ncccc3c12 (stereo not given) | inconclusive: 14%
COc1cc2c(C(=O)NCCC3=CCCCC3)cn(CC(C)C)c(=O)c2cc1OC | inactive

Quoted at random: 4 records from the list
Compound | inhibition
O=C1CCCC2=C1C(c1ccc(F)cc1)Nc1ccc3ncccc3c12 (stereo not given) | inconclusive: 14%
O=[N+]([O-])c1ccc(CSc2ncn[nH]2)cc1 | inactive
O=C(Nc1ncc(S(=O)(=O)c2ccc([N+](=O)[O-])cc2)s1)c1cccc(Cl)c1 | inactive
CCn1cc(C(=O)N2CCOCC2)c2cc(OC)c(OC)cc2c1=O | inactive

Next part:

Compound | inhibition
CNc1ncccc1C(=O)N1CC[C@@H](c2ccc3ccccc3c2)[C@H](O)C1 | inconclusive: 16%
CC(C)CC(NC(=O)CN(C)C)c1nnc2n1CCN(C(=O)/C=C/c1ccc(F)cc1)CC2 (stereo not given) | inactive
COC[C@H]1CCCN1[C@@H]1[C@H](O)[C@H](CO)O[C@@H]1CNC(=O)c1cccs1 | inconclusive: 17%
C=CCN(CC=C)Cc1c(O)ccc2c(=O)c(-c3ccccc3Cl)coc12 | inconclusive: 15%
COc1ccc(CCNc2oc(COc3cccc(C)c3)nc2C#N)cc1 | active: 30%
CC1=CC[C@@H]2CN(C(=O)c3ccccc3N3CCOCC3)C[C@@H]2C1 | inconclusive: 13%
COC(=O)c1c(NC(=O)COc2ccc(Cl)cc2C)sc(C)c1C | inactive
COc1ccccc1NC(=O)c1cccs1 | inconclusive: 14%
CN(C)c1ccc(NC(=O)CCC(=O)O)cc1 | active: 51%
O=C(Cc1c(C(=O)O)[nH]c2ccccc12)Nc1ccc2c(c1)OCCO2 | inactive
COc1ccc(CN2CCCCC2C(=O)Nc2ccc(-n3cnnn3)cc2)cc1F (stereo not given) | inconclusive: 12%
O=C(c1ccc2oc(Cc3ccccc3)nc2c1)N1CCC(N2CCOCC2)CC1 | inconclusive: 11%
Cc1ccsc1CN(Cc1ccoc1)CC(C)C | inconclusive: 23%
COc1ccc(OC)c(C(=O)CN2C3=NCCCN3c3ccccc32)c1 | inactive
COC(=O)CC[C@H]1CNC(=O)[C@@H]2[C@@H](CCN2Cc2ccc(F)cc2)N1C | inconclusive: 12%
O=C(CCCOc1ccccc1)N1CCN(c2ccc([N+](=O)[O-])cc2)CC1 | inactive
CNc1cc(-c2ccc3ccccc3n2)c2cc[nH]c2n1 | active: 52%
Cc1ccc(F)cc1-c1ccccc1C(N)=O | inactive
c1ccc(-n2cccc2CN(Cc2cccnc2)Cc2ccc3c(c2)OCO3)nc1 | inconclusive: 10%
NC(=O)c1cccc(CC2CCN(C(=O)CCc3cccnc3)C2)c1 (stereo not given) | inconclusive: 20%
CCN(CC)c1ccc(C2CC(c3ccc(Br)cc3)=NN2C(=O)CCC(=O)O)cc1 (stereo not given) | inconclusive: 12%
